Reference: patent US20150361139A1 (SANDOZ AG, priority 2013, published 2015)
Ends that are not written are not given here.

Assay: peptide synthesis
Conditions: purification step, acetate (starting material), no acetate counterion detected after crystallisation

Sequence: CCEYCCNPACTGCY (cysteine pairing not given here)
- final HPLC purity (run 1): 98.70%
- final HPLC purity (run 2): 99%
- step yield: 90%
